Values quoted from earlier work as cited in patent EP1335967B1, “CLEANING COMPOSITIONS” (UNILEVER N.V., priority 2000, dated 2002).

Settings: grams of solid to form a saturated solution in 100g of deionised water at 20°C

Water Solubility (g/100g): >100 g/100g
Structure (SMILES): NC(N)=O [Urea]
